Measurements: publication doi:10.1101/2024.08.17.24311658
These are yes or no findings as the source states them, for the method shown. Binding seen in cells or lysates may run through a third protein. Some binding calls cover weakened binding; strength is not graded here.

The chains behind the UniProt entries cited, without tags or fusion partners. Where a name states a change or a piece, a line headed by the entry shows the natural chain unless it says otherwise.
UniProt Q9H0A8: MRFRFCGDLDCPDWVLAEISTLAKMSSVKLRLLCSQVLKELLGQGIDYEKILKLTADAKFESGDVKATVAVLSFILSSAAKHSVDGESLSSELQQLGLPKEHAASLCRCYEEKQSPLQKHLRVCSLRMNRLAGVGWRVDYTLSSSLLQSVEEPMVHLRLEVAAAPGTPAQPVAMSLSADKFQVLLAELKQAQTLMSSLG
UniProt Q567U6: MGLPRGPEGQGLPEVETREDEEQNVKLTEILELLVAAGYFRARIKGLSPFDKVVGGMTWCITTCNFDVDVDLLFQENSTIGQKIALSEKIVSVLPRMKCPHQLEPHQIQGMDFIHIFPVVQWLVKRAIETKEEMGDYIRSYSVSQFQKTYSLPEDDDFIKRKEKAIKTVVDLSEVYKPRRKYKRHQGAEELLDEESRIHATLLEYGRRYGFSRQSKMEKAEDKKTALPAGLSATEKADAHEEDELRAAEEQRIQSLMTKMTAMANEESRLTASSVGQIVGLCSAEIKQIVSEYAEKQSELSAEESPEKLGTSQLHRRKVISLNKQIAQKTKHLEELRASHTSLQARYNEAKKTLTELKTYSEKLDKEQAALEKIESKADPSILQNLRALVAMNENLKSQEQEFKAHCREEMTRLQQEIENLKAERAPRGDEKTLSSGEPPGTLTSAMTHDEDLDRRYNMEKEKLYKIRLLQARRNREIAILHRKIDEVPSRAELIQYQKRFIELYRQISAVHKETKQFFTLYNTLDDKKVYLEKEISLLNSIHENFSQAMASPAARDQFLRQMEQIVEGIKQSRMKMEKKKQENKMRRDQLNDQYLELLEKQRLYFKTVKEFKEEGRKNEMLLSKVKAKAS
UniProt Q8TCE6: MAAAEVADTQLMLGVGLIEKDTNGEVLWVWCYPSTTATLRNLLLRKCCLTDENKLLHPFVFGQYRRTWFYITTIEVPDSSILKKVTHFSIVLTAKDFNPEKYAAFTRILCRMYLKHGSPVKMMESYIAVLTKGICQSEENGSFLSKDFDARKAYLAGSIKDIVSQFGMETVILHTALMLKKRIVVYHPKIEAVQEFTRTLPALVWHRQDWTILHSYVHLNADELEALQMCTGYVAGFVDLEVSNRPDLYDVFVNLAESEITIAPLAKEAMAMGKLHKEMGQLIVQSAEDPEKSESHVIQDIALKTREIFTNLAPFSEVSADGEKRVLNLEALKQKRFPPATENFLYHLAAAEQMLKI
UniProt O60826: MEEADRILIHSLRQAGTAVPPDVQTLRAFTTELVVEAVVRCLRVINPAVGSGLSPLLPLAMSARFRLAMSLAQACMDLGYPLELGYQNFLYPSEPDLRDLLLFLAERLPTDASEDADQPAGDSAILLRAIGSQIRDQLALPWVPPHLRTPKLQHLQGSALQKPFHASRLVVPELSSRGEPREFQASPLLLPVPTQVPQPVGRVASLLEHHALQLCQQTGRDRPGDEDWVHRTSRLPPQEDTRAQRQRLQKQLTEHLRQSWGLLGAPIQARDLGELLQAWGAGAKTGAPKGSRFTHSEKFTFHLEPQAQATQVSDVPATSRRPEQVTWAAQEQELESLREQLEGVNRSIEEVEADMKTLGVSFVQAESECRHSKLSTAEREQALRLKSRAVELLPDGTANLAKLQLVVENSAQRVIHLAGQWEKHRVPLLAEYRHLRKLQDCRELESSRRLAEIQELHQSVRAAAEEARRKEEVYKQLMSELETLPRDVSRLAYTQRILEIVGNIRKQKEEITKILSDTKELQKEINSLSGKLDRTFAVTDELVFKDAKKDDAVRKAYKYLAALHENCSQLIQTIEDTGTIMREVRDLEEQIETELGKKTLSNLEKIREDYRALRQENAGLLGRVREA
UniProt Q8N668: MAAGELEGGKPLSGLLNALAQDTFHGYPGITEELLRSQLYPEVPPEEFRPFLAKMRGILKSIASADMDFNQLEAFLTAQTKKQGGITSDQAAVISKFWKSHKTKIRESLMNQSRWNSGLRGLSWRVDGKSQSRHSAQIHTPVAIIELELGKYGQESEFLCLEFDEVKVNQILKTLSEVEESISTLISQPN
UniProt Q86X83: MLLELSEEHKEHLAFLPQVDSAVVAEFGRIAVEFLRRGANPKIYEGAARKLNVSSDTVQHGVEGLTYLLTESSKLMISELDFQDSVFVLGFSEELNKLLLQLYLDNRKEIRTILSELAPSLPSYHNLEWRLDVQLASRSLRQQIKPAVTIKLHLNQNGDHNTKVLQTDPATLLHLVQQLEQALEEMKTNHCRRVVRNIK
UniProt Q9UBI1: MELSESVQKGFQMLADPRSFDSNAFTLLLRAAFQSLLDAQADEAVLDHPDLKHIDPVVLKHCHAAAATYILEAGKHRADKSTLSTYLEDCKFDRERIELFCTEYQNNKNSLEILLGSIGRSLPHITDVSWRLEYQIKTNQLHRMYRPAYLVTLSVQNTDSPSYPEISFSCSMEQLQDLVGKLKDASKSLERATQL
UniProt Q9GZQ3: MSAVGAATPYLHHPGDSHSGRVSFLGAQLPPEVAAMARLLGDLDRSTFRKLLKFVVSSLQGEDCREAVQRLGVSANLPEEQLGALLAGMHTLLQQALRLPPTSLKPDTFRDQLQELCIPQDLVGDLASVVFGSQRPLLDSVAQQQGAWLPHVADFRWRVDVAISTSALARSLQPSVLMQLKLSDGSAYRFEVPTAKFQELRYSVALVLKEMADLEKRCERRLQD
UniProt Q7Z4G1: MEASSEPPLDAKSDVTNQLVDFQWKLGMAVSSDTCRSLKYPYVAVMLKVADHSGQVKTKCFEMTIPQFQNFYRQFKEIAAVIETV
UniProt Q86VX2: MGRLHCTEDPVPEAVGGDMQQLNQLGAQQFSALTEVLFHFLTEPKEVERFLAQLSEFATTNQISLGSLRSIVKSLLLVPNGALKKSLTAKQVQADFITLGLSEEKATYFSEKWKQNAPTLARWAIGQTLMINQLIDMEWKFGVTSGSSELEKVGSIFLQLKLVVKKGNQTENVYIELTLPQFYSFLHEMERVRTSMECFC
UniProt Q9NX08: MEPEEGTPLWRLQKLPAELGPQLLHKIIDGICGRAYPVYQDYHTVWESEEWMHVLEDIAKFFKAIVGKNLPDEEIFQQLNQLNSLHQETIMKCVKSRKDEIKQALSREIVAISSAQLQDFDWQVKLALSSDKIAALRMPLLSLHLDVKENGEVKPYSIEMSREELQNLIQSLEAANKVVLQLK
UniProt Q9P000: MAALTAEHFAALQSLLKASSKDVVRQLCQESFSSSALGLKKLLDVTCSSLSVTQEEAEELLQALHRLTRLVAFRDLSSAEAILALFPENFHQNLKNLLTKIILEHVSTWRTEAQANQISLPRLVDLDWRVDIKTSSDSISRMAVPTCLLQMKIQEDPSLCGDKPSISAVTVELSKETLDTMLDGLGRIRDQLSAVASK
UniProt Q9Y6G5: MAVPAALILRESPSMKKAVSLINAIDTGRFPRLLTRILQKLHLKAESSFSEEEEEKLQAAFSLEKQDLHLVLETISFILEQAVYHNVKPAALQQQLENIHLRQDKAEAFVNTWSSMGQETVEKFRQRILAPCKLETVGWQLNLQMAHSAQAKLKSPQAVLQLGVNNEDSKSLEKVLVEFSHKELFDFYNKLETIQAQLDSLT

Key:
Assay in all cases: co-IP
[1] = target: GFP-COMMD4 wild-type (human) (UniProt Q9H0A8)
GFP-COMMD4-L41R (human) = GFP-COMMD4-L41R (human) (UniProt Q9H0A8)
[2] = target: GFP-CCDC93 wild-type (human) (UniProt Q567U6)
GFP-CCDC93-S631A (human) = GFP-CCDC93-S631A (human) (UniProt Q567U6)

| binding [1] | binding (GFP-COMMD4-L41R (human)) | binding [2] | binding (GFP-CCDC93-S631A (human)) | Substance |
| --- | --- | --- | --- | --- |
| binds | binds |  |  | DENND10 (from UniProt Q8TCE6 1-357) |
|  |  | binds | binds | CCC complex (from UniProt O60826;Q567U6;Q8N668;Q86X83;Q9UBI1;Q9H0A8;Q9GZQ3;Q7Z4G1;Q86VX2;Q9NX08;Q9P000;Q9Y6G5) |
